Results are given in words; binding and its absence hold for the method and conditions named. Binding seen in cells or lysates may run through a third protein. These calls come from enrichment with a bait or labelling near it, and not all partners need be listed. Each block holds one molecule with its values, some of them ahead of it.
Molecular target: Mta2, FLAG-tagged (mouse (endogenous locus in mouse embryonic stem cells)) (UniProt Q9R190)
Assay: affinity purification with mass spectrometry; FLAG affinity purification of the tagged bait from mouse embryonic stem cell lysate (M2 anti-FLAG antibody on Protein G magnetic beads, 4 °C, 150 mM NaCl, 0.1% NP-40), competitive elution with 3x FLAG peptide, eluate resolved by blue native PAGE (3-12%), 48 gel slices, LC-MS/MS, protein correlation profiling of migration profiles (ABC-MS)

Amino acid sequences for entries named in this document (tags omitted).
UniProt Q9R190: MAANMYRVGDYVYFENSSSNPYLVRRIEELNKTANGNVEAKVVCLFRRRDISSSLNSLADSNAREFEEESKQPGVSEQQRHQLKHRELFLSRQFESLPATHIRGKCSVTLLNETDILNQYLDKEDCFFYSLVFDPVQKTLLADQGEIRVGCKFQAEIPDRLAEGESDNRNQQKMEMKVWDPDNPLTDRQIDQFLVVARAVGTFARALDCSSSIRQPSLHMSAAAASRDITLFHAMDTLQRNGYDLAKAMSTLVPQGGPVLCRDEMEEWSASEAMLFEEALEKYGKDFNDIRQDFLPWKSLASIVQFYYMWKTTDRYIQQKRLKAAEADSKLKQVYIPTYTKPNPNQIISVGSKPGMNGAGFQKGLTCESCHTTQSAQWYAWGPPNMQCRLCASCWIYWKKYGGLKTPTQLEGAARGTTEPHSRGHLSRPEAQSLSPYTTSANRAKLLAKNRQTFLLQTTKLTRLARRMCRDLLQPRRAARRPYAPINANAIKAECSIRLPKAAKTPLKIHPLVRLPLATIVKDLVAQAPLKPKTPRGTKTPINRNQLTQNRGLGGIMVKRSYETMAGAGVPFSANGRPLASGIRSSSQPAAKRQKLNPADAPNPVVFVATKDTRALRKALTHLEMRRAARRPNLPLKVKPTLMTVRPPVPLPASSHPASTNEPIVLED
UniProt Q924K8: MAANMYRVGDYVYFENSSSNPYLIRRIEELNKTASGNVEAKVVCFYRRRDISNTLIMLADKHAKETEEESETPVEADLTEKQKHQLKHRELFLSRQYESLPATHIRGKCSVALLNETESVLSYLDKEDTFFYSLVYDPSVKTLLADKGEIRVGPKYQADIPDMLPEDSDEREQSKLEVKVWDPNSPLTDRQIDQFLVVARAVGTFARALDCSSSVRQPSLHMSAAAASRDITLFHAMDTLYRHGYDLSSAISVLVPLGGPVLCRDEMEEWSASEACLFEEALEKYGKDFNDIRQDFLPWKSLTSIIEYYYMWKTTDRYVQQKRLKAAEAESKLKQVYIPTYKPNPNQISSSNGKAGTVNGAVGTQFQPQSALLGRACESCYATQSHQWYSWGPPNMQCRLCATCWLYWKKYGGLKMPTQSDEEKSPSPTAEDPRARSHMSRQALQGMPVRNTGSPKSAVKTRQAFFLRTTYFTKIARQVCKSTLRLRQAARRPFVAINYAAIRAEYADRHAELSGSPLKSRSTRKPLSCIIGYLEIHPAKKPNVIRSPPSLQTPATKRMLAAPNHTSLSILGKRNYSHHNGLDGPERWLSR
UniProt Q6PDQ2: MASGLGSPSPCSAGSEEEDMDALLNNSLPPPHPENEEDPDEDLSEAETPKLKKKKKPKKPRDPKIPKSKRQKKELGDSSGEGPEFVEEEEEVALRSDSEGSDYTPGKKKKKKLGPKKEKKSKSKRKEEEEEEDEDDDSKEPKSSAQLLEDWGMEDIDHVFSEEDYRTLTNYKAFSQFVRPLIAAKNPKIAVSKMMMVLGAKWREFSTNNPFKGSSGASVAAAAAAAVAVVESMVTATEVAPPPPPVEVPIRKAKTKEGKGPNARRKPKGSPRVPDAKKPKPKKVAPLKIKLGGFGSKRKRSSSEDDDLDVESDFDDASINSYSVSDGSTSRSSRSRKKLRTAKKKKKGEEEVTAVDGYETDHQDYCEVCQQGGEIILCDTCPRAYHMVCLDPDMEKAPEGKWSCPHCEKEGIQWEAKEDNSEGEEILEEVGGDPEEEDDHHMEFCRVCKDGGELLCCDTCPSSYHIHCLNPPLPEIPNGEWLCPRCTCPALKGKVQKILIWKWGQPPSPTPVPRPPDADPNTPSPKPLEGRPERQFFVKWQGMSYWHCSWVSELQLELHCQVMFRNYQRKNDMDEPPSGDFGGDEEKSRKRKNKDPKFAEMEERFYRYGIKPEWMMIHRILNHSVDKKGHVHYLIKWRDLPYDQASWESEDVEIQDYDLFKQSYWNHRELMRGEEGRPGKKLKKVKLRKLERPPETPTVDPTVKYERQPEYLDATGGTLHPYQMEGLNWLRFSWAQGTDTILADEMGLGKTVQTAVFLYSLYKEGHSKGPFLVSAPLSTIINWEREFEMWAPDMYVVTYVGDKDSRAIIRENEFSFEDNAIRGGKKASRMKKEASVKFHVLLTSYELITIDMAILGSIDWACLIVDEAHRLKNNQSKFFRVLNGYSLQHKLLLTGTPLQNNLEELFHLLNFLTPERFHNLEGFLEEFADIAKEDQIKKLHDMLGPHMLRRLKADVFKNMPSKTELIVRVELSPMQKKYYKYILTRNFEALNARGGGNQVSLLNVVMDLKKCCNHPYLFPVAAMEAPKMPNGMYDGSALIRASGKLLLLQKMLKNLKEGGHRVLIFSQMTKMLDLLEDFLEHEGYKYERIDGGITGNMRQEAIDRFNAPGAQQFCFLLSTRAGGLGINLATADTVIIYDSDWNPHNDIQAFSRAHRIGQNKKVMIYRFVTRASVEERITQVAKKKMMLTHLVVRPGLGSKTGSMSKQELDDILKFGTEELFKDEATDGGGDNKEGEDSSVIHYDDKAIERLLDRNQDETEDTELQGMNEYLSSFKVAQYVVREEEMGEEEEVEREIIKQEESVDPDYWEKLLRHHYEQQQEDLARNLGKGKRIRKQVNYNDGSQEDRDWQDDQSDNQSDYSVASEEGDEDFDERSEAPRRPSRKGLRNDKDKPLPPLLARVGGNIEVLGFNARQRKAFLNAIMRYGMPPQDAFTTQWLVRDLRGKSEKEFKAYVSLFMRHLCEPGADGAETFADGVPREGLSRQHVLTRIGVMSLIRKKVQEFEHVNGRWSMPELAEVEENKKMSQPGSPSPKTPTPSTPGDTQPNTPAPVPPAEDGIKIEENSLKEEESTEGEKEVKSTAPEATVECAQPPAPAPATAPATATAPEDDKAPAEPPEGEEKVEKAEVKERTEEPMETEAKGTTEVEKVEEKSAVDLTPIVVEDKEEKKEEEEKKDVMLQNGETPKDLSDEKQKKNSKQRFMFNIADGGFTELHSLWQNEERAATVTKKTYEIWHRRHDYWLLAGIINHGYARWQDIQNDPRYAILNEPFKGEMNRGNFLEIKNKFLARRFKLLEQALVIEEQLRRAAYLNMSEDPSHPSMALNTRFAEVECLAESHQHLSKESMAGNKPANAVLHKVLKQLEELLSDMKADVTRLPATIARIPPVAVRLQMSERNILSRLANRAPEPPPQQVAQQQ
UniProt Q8K4B0: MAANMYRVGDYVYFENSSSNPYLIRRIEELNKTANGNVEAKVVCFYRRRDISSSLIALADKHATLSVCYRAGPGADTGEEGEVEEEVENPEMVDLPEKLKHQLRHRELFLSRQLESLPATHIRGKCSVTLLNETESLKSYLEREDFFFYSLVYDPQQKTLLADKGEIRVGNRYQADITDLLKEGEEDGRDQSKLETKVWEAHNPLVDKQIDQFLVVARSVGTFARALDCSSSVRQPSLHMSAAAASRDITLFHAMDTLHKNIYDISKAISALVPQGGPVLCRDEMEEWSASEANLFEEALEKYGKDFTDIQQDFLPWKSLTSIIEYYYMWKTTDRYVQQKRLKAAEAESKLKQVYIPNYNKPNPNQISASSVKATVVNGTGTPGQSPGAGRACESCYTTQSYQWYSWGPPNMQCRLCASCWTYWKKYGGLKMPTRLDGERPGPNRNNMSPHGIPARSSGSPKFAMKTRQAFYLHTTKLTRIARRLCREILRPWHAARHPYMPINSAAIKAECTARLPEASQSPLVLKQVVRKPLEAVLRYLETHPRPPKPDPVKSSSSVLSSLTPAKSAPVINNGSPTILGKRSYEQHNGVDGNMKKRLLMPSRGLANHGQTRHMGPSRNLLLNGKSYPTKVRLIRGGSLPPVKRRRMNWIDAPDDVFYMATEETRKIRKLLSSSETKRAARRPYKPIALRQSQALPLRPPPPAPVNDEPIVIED
UniProt P70288: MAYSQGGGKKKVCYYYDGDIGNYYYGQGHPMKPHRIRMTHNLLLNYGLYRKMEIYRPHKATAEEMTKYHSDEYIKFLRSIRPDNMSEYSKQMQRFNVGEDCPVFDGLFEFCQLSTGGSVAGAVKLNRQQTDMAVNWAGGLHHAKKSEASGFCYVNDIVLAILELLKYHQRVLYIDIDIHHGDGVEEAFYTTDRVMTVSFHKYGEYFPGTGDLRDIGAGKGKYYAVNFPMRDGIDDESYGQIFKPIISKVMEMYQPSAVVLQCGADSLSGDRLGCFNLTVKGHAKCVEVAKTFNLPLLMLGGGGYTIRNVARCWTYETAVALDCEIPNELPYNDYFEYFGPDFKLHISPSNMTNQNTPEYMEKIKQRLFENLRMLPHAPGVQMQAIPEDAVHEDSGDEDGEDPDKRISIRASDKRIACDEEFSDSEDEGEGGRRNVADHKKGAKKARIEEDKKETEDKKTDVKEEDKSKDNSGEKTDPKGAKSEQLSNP
UniProt Q8VHR5: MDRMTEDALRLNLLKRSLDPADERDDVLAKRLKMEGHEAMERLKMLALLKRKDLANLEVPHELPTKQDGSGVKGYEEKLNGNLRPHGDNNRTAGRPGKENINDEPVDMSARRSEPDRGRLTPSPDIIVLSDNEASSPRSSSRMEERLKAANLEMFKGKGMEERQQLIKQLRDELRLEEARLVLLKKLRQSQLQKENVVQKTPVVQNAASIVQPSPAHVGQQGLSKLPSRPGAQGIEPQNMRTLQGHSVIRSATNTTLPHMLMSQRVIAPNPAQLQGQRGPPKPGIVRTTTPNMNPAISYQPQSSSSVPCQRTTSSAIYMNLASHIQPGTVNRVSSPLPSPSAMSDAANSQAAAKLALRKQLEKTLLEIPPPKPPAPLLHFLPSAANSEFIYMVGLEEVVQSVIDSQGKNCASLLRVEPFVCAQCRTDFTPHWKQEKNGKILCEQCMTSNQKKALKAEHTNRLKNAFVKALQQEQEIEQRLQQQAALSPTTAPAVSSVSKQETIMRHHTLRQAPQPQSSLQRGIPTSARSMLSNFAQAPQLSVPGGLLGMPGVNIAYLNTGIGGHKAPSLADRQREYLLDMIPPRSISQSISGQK
UniProt O09106: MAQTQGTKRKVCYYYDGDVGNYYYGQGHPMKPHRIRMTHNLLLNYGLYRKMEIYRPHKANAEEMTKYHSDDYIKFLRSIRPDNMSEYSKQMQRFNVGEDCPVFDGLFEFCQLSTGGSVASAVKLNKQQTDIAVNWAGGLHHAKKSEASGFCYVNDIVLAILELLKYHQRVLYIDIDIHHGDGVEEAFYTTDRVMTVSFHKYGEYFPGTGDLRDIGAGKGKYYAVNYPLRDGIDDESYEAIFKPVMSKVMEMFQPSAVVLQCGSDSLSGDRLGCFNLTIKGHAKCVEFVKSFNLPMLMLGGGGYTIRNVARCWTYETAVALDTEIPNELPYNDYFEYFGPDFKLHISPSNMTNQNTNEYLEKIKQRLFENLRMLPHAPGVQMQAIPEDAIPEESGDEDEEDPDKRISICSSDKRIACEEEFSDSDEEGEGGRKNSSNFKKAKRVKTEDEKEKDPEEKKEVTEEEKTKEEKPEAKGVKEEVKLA

binding: binds
Molecule: Mta3 (from UniProt Q924K8 1-591)

binding: binds
Molecule: Chd4 (from UniProt Q6PDQ2 1-1915)

binding: binds
Molecule: Mta1 (from UniProt Q8K4B0 1-715)

binding: binds
Molecule: Hdac2 (from UniProt P70288 1-488)

binding: binds
Molecule: Gatad2b (from UniProt Q8VHR5 1-594)

binding: binds
Molecule: Hdac1 (from UniProt O09106 1-482)

binding: binds
B1: Cdk2ap1 (protein, UniProt O35207 1-114)
chain: MSYKPNLTAHMPAAALNAGSVHSPSTSMATSSQYRQLLSDYGPPSLGYTQGTGNSQVPQSKYAELLAIIEELGKEIRPTYAGSKSAMERLKRGIIHARSLVRECLAETERNARS

Reference: PMC5564443
